Among the data in ChEMBL document CHEMBL1145968, “3-(alphaR)-alpha-((2S,5R)-4-allyl-2,5-dimethyl-1-piperazinyl)-3-hydroxybenzyl)-N-alkyl-N-arylbenzamides: potent, non-peptidic agonists of both the micro and delta opioid receptors” (J Med Chem, 2003) are EC50 values, retold here.

For the assay, the species on record is Mus musculus. Kind of assay: Inhibition of the electrically induced muscle contractions was determined using the mouse vas deferens. The assay is classed as functional. In a few lines: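 Vas deferens segments in Krebs buffer, placed between platinum electrodes with isometric force recording at 0.5 g resting tension. Stimulated with 400 ms trains (1 ms pulses, 10 Hz, supramaximal voltage). Cumulative concentrations were each allowed maximal effect before the next.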

Structures are written as SMILES.

By EC50 is commonly meant the concentration needed to bring the measured effect to its halfway point. A low value points to higher potency in that assay. Compound `CN1CC[C@]23c4c5ccc(O)c4O[C@H]2[C@@H](O)C=C[C@H]3[C@H]1C5` [MORPHINE] came in with an EC50 of 19.7 µM.
